Results: patent US11712473B2, “Sensitizer-peptide conjugate” (UNIVERSITY OF ULSTER, priority 2017, dated 2023)

Assay: ROS generation on exposure to low intensity ultrasound, DPBF probe
Assay type: physicochemical
Conditions: 0.5 μM drug, 20 μM DPBF, EtOH:H2O 50:50, ultrasound 30 min, 1 MHz, 3.0 W/cm^2, 50% duty cycle; relative to controls
Method: The ability of the Rose Bengal-C(KLAKLAK)2 (SEQ ID NO. 2) conjugate to generate reactive oxygen species (ROS) upon exposure to low intensity ultrasound was determined using the chromogenic ROS probe 1,3-diphenylisobenzofuran (DPBF). DPBF has an intense absorbance band centred at 410 nm in its native furan form but is readily bleached by ROS to the corresponding di-ketone. This conversion to the di-ketone is accompanied by a loss in absorbance at 410 nm that can be used to determine the amount of ROS produced. An EtOH:H2O (50:50 v/v) (10 mL) solution was prepared containing Rose Bengal or Rose Bengal-C(KLAKLAK)2 (SEQ ID NO. 2) (0.5 μM) and 1,3-diphenylisobenzofuran (DPBF) (20 μM). The solutions were then irradiated for 30 min with ultrasound using a sonoporator (Sonidel SP 100 sonoporator; frequency 1 MHz, power density 3.0 W/cm^2, 50% duty cycle, pulse repetition frequency 100 Hz). Aliquots were taken every 5 minutes and the absorbance at 410 nm was recorded using a ultraviolet-visible spectrometer (Cary 50 ultraviolet-visible (UV-Vis) spectrometer). Control experiments in the absence of drug (i.e. DPBF+stimulus) were also performed for comparative purposes (n=3).

With O=C1OC2(c3cc(I)c(O)c(I)c3Oc3c2cc(I)c(O)c3I)c2c(Cl)c(Cl)c(Cl)c(Cl)c21 [Rose Bengal, 4,5,6,7-tetrachloro-2′,4′,5′,7′-tetraiodofluorescein] as the compound, how does the “DPBF absorbance at 410 nm (ROS production)” value read?
Its value is “significant reduction in DPBF absorbance”.
